{"source": "PubChem BioAssay AID445", "about": "(National Center for Advancing Translational Sciences (NCATS), 2006)", "note": "Some of the results follow. Further columns of the screen follow, without active or inactive calls. The list favours compounds with an active or inconclusive main result. Potencies come from curve fits of mixed quality, noted in brackets."}
{"experiment": "IkB Signaling", "details": "ABC-DLBCL IkBa-CBG/CBR dual luciferase ratio (green luciferase fused to IkBa over red control in OCI-Ly3 lymphoma cells), 4 h; measured here: control luc red channel unless noted", "method_in_brief": "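Curves were fitted separately to fusion (green), unfused (red) and ratio luminescence, then classed by r2, magnitude and activity. Cells: OCI-Ly3, 4 h compound plus doxycycline at 37C; 10 uM MG-132 defined full response.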"}
{"smiles": "O=C(Nc1ccc(Cl)c(C(F)(F)F)c1)c1ccc2c(c1)CCN2S(=O)(=O)c1ccccc1", "AC50": "0.158 µM [rising, full curve]"}
{"smiles": "CC(=O)Nc1nc(C)c(-c2csc(Nc3ccc(O)cc3)n2)s1", "AC50": "25.1 µM [falling, partial curve]"}
{"smiles": "Cc1ccccc1Cn1nnc2c(=O)[nH]c(C3CCN(C(=O)c4ccccc4Cl)CC3)nc21", "AC50": "39.8 µM [falling, single point]"}
{"smiles": "Cc1ccc(-n2ncc(C(=O)NCc3ccccn3)c2C2CCN(C(=O)OC(C)(C)C)CC2)c(C)c1", "AC50": "12.6 µM [falling, partial curve]"}
{"smiles": "CCC1CN(C(=O)NCc2ccccc2)c2cc(C)ccc2O1", "note": "(centres undefined)", "AC50": "10 µM [falling, partial curve]"}
{"smiles": "CCOC(=O)c1cc2c(=O)n3ccccc3nc2n(C)c1=NC(=O)c1c(-c2ccccc2Cl)noc1C", "AC50": "15.8 µM [falling, partial curve, poor fit]"}
{"smiles": "O=C(Nc1ccc(F)cc1F)c1ccc2c(c1)CCN2S(=O)(=O)c1ccc(Cl)cc1", "AC50": "20 µM [falling, single point]"}
{"smiles": "CN1C(=O)CC(C(=O)Nc2ccc(F)cc2)SC1=Nc1ccc2c(c1)OCO2", "note": "(centres undefined)", "AC50": "25.1 µM [falling, single point]"}
{"smiles": "COc1ccc2oc(=O)c(C(=O)Nc3cccc(C(=O)O)c3)cc2c1", "AC50": "1.26 µM [falling, full curve]"}
{"smiles": "CC(C)(c1cc(Br)c(O)c(Br)c1)c1cc(Br)c(O)c(Br)c1", "AC50": "39.8 µM [rising, single point] [measured here: IkB-luc green channel]"}
{"smiles": "CCN(CC)S(=O)(=O)c1cc(C(=O)OCC(=O)c2ccc3c(c2)NC(=O)CO3)ccc1F", "AC50": "20 µM [falling, partial curve]"}
{"smiles": "COc1cc(-c2cc3n(C)c(C)c(CCC(=O)NCc4ccccc4)c(=O)n3n2)cc(OC)c1OC", "AC50": "31.6 µM [falling, single point]"}
{"smiles": "COc1ccc(OC)c(CCNC(=O)Cn2ccc3cc(S(=O)(=O)N4CCCCC4)ccc32)c1", "AC50": "31.6 µM [falling, partial curve]"}
{"smiles": "CCOC(=O)c1cc(OC(=O)c2ccc(OC)cc2)n(-c2ccccc2)n1", "AC50": "39.8 µM [falling, single point]"}
{"smiles": "COc1ccccc1-c1cc2nc(C)c(CCC(=O)NCCc3ccc(SC)cc3)c(C)n2n1", "AC50": "0.398 µM [falling, full curve]"}
{"smiles": "Cc1ccc(C)c(CNC(=O)c2ccc3c(c2)nc2n3CCC(C)C2)c1", "note": "(centres undefined)", "AC50": "39.8 µM [falling, partial curve, poor fit]"}
{"smiles": "COc1cccc(Nc2ncc3nc(-c4cccs4)c(=O)n(C[C@H]4CCCO4)c3n2)c1", "AC50": "2 µM [falling, partial curve] [measured here: IkB-luc green channel]"}
{"smiles": "CCn1c(COc2cccc(C)c2)nnc1SCC(=O)Nc1cccc(C(=O)OC)c1", "AC50": "15.8 µM [falling, partial curve]"}
{"smiles": "O=C(OCc1cc(=O)n2nc(-c3cccs3)sc2n1)c1ccccc1", "AC50": "39.8 µM [falling, single point]"}
{"smiles": "O=C1c2oc3ccccc3c(=O)c2C(c2ccc(O)cc2)N1Cc1ccc2c(c1)OCO2", "note": "(centres undefined)", "AC50": "0.126 µM [rising, full curve]"}
{"smiles": "O=C(c1ccc(Cl)cc1)N1CCC(c2nc3ccccc3o2)CC1", "AC50": "20 µM [falling, single point]"}
{"smiles": "CCOc1ccc(NC(=O)c2c(NCc3ccc(C)o3)sc3c2CCCCC3)cc1", "AC50": "25.1 µM [falling, partial curve]"}
{"smiles": "Cc1ccc(CSC2=Nc3ccccc3C3=NC(CC(=O)NCc4cccs4)C(=O)N23)c(C)c1", "note": "(centres undefined)", "AC50": "25.1 µM [falling, partial curve]"}
{"smiles": "COCCn1c(C)cc(C(=O)COC(=O)c2c(C)nn(Cc3ccccc3)c2C)c1C", "AC50": "31.6 µM [falling, partial curve]"}
{"smiles": "O=C(Nc1ccc2nc(SCCOc3ccccc3)sc2c1)c1ccccc1F", "AC50": "0.631 µM [falling, full curve]"}
{"smiles": "Cc1ccc(-c2ccc(=O)n(CC(=O)NCCc3ccc(Cl)cc3)n2)cc1", "AC50": "15.8 µM [falling, partial curve]"}
{"smiles": "COc1ccc(NC(=O)c2c(NCc3cccs3)sc3c2CCCC3)c(OC)c1", "AC50": "0.00794 µM [falling, full curve]"}
{"smiles": "COc1ccc(NC(=O)c2oc3ccccc3c2NC(=O)Cc2coc3cc(C)ccc23)cc1", "AC50": "3.98 µM [falling, partial curve]"}
{"smiles": "N#CC1=C(SCC(=O)NC23CC4CC(CC(C4)C2)C3)NC(=O)C(C#N)C12CCCCC2", "note": "(centres undefined)", "AC50": "15.8 µM [falling, partial curve]"}
{"smiles": "COc1ccc(C)cc1NC(=O)CCNC(=O)Cn1ccc2ccccc2c1=O", "AC50": "7.94 µM [falling, full curve, poor fit]"}
{"smiles": "CN1C(=O)Cc2cc(S(=O)(=O)CCC(=O)Nc3ccc(Cl)c(C(F)(F)F)c3)ccc21", "AC50": "39.8 µM [falling, partial curve]"}
{"smiles": "COc1ccc(C2=C(C)C(=NCCCN3CCN(c4cc(Cl)ccc4C)CC3)NS2(=O)=O)cc1", "AC50": "10 µM [falling, partial curve]"}
{"smiles": "COc1ccc(-n2ncc(C(=O)Nc3ccc4c(c3)OCO4)c2C2CCN(C(=O)OC(C)(C)C)CC2)cc1", "AC50": "25.1 µM [falling, partial curve]"}
{"smiles": "COc1ccc2oc(-c3ccc(C)c(NC(=O)c4ccc5c(c4)OCCO5)c3)nc2c1", "AC50": "3.16 µM [falling, full curve]"}
{"smiles": "CN1/C(=C\\C(=O)c2cccs2)Sc2ccccc21", "AC50": "15.8 µM [falling, single point]"}
{"smiles": "Cn1c(-c2ccccc2)cnc1NCc1ccccc1O", "AC50": "31.6 µM [falling, single point]"}
{"smiles": "O=C(NCc1ccccc1Br)c1ccc2c(c1)nc1n2CCOC1", "AC50": "5.01 µM [rising, full curve, poor fit]"}
{"smiles": "CCCNC(=O)COCc1cc(-c2ccc(F)cc2)on1", "AC50": "12.6 µM [falling, partial curve, poor fit]"}
{"smiles": "O=C(NCc1ccco1)c1cccn2c(=O)c3sccc3nc12", "AC50": "15.8 µM [falling, partial curve]"}
